Test results published in US20050147610A1.
These are yes or no findings as the source states them, for the method shown. Some entries that bind do so weakly or less than the wild type.

Sequences of proteins named here, by UniProt entry; tags and fusion partners are left off. A change or cut given only in a name is not applied to a line headed by its entry.
UniProt Q14116: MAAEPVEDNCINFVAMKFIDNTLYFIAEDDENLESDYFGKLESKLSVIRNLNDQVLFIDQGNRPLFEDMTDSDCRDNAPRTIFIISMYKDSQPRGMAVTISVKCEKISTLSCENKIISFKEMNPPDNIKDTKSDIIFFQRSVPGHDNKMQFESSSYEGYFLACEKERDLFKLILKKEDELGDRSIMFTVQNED

How the values were obtained:
[1] = molecular target: recombinant mature human IL-18 (preparation not specified) (human) (UniProt Q14116); assay: BIACORE; soluble 2nd on rhuIL-18 captured by immobilized 435 (competitor)
[2] = molecular target: recombinant mature human IL-18 (preparation not specified) (human) (UniProt Q14116); assay: BIACORE; soluble 2nd on rhuIL-18 captured by immobilized 2.5(E)mg1 (competitor)
[3] = molecular target: recombinant mature human IL-18 (preparation not specified) (human) (UniProt Q14116); assay: BIACORE; soluble 2nd on rhuIL-18 captured by immobilized IL-18BP (competitor)
[4] = molecular target: recombinant mature human IL-18 (preparation not specified) (human) (UniProt Q14116); assay: BIACORE; soluble 2nd on rhuIL-18 captured by immobilized 581 (competitor)
[5] = molecular target: recombinant mature human IL-18 (preparation not specified) (human) (UniProt Q14116); assay: BIACORE; soluble 2nd on rhuIL-18 captured by immobilized 2.3 (competitor)
[6] = molecular target: recombinant mature human IL-18 (preparation not specified) (human) (UniProt Q14116); assay: BIACORE; soluble 2nd on rhuIL-18 captured by immobilized 125-2H (competitor)
[7] = molecular target: recombinant mature human IL-18 (preparation not specified) (human) (UniProt Q14116); assay: BIACORE; soluble 2nd on rhuIL-18 captured by immobilized 2.13(E)mg1 (competitor)
[8] = molecular target: recombinant mature human IL-18 (preparation not specified) (human) (UniProt Q14116); assay: BIACORE; soluble 2nd on rhuIL-18 captured by immobilized 444 (competitor)
[9] = molecular target: recombinant mature human IL-18 (preparation not specified) (human) (UniProt Q14116); assay: BIACORE; soluble 2nd on rhuIL-18 captured by immobilized 215 (competitor)

| binding [1] | binding [2] | binding [3] | binding [4] | binding [5] | binding [6] | binding [7] | binding [8] | binding [9] | Binder |
| --- | --- | --- | --- | --- | --- | --- | --- | --- | --- |
| binds | binds | binds | binds | – | – | – | – | – | 2.3.3 (antibody, V domains shown) VH: ZVQLQESGPGLVKPSETLSLTCTVSGGSIRNYYWSWIRQPPGKGLEWVGYIYSSGSTNYNPSLKSRVTISVDTSKNQFSLKLSSVTAADTAVYYCARDRGGASFFDYWGQGTLVTVSS VL: DIQMTQSPSSLSASIGDRVTITCRASQIIGGYLNWYQQRPGKAPKFLIYSTSILQSGVPSRFSGSGSGTDFTLTISSLQPEDFATYYCQQTYITPPTFGPGTKVDIKR |
| – | – | binds | – | binds | binds | binds | binds | binds | 581 (antibody, V domains shown) VH: ZVQLVESGGGVVQPGRSLRLSCAASGFTFSHCGMHWVRQAPGKGLEWVAVISYDGSNKYYADSVKGRFTISRDNSKNTLYLQMNSLRAEDTAVYYCAKDHGGSGSPPFYYYYGMDVWGQGTTVTVSS VL: DILMTQTPLSLSVTPGQPASISCKSSQSLLHGDGKTYLYWYLQKPGQPPQFLIQELSNRFSGVPDRFSGSGSGTDFTLKISRVEAEDVGVYYCMQSLQLPLTFGGGTKVQIKR |
| – | – | binds | – | binds | binds | binds | binds | binds | 435 (antibody, V domains shown) VH: ZLQLQESGPGLVKPSETLSLTCTVSGGSIDSRIYYWGWIRQPPGKGLEWIGSIYYRGSTYYNPSLKSRVTISVDTPKNQFSLKLNSVTAADTAVYYCAREDSSAWVFDYWGQGTLATVSS VL: EIVLTQSPGTLSLSPGERATLSCRASQSVRNNYLNWYQQKPGQAPRLLIYGAFSRATGIPDRFSGSGSGTDFTLTISSLEPEDFVVYYCQQYGNSIDSFGQGTKLEINR |
